# Literature values in patent publication US20180071210A1, “CANNABINOID FORMULATIONS” (GW Research Limited, priority 2016, published 2018).
smiles,measurement,setting,value
"C=C(C)[C@@H]1CCC(C)=C[C@H]1c1c(O)cc(CCCCC)cc1O [CBD, cannabidiol]",solubility in dimethylsulfoxide DMSO,DMSO,60 mg/mL
same,solubility in ethanol,ethanol,36 mg/mL
